Results taken from the supplement of paper PMC10849652.
The list shows a part of the results.

By UniProt entry, the sequences of proteins in these tests, tags left out. Where a name states a change or a piece, a line headed by the entry shows the natural chain unless it says otherwise.
UniProt P32929, whole entry, looked up: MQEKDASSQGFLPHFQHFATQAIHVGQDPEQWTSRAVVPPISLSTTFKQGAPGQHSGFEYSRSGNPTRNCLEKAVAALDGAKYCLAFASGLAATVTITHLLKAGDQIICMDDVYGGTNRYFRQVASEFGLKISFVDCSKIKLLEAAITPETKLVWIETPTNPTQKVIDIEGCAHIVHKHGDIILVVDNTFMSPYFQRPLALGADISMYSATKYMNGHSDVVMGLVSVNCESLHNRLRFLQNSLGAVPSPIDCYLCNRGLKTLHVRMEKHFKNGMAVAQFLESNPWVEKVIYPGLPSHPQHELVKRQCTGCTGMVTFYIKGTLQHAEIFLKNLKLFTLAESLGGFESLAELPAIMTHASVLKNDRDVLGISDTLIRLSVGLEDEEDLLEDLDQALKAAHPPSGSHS
UniProt Q96C57: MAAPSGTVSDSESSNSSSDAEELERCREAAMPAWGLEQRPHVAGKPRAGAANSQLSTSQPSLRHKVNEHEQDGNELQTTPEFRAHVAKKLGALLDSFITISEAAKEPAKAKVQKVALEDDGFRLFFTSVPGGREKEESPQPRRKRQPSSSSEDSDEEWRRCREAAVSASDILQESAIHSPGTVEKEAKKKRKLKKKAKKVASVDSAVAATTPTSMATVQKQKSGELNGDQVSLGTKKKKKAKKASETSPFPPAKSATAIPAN
UniProt Q7L576: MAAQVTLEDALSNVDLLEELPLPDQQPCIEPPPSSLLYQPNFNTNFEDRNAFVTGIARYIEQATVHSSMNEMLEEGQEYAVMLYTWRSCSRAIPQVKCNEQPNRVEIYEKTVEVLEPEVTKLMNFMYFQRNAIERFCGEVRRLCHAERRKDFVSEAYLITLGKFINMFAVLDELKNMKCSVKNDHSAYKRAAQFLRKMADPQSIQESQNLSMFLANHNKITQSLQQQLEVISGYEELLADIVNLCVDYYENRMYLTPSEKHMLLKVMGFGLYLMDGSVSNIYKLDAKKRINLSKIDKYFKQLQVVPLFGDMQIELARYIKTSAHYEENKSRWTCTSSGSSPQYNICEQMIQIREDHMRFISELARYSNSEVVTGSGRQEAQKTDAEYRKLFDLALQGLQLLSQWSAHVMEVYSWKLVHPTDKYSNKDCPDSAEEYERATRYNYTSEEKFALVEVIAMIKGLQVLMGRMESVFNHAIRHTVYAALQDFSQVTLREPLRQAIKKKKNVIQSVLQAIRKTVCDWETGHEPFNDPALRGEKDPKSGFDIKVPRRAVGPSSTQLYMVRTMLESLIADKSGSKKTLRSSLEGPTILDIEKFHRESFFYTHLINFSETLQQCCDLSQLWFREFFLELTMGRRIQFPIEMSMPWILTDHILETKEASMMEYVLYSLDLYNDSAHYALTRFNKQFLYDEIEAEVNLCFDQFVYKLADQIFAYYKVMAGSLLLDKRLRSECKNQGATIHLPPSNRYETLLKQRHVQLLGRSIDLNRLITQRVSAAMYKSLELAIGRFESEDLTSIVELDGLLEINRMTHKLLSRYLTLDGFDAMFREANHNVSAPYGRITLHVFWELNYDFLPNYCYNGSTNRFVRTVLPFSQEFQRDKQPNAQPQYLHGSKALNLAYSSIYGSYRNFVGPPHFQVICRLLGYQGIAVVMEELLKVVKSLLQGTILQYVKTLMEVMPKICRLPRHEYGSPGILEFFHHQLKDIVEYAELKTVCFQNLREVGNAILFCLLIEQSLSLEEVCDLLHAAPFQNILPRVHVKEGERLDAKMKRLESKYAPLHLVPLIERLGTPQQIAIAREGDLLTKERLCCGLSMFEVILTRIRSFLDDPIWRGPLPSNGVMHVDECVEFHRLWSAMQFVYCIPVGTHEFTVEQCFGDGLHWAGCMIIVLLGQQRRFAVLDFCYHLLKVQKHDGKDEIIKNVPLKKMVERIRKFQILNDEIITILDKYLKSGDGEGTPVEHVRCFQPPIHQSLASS
UniProt O75534: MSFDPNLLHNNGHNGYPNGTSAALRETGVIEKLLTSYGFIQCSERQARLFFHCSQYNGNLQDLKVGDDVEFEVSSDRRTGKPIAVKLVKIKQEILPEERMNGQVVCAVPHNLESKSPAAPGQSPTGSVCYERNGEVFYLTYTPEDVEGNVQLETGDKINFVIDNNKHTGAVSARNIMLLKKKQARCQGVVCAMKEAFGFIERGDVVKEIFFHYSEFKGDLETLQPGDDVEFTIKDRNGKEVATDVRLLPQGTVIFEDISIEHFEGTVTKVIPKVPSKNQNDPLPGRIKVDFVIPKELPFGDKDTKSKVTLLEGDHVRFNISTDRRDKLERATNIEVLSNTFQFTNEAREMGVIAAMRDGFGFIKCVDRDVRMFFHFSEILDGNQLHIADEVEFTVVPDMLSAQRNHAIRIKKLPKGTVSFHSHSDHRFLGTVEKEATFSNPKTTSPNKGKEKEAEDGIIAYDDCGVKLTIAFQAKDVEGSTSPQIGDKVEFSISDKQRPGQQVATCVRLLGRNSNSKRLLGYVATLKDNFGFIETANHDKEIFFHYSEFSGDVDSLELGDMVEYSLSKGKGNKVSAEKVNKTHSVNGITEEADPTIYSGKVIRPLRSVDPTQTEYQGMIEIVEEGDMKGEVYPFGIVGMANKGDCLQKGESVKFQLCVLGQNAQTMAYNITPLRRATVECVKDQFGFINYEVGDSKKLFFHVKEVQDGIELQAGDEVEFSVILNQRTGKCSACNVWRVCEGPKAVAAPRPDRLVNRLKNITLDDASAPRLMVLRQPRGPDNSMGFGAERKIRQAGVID
UniProt P00387: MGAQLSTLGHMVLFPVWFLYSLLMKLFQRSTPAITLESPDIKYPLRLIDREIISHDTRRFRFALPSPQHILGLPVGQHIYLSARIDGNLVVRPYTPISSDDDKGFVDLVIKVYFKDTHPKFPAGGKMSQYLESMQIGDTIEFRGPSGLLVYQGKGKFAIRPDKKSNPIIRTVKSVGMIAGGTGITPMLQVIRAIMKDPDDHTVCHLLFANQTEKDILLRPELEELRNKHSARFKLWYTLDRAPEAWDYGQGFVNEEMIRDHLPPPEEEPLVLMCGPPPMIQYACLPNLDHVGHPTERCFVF
UniProt Q8NBI2: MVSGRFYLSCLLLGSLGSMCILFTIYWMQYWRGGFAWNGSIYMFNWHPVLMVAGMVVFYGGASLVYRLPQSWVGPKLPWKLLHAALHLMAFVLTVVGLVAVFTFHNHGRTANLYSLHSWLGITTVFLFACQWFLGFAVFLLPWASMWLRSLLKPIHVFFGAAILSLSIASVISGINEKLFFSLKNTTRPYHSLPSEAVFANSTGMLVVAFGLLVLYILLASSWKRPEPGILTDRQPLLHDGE
UniProt Q8IUI8: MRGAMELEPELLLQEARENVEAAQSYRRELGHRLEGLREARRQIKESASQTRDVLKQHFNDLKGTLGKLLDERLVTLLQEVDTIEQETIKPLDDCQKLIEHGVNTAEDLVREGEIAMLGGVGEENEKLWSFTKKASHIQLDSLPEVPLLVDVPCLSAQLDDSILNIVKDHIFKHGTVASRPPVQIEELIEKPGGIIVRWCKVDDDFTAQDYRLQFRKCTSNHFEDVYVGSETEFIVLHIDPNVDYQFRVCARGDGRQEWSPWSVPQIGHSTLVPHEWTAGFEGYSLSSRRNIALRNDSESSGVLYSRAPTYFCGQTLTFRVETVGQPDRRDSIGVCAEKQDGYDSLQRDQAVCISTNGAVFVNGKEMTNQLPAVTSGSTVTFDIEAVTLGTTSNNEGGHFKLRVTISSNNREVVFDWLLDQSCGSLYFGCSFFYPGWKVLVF
UniProt Q53ET0: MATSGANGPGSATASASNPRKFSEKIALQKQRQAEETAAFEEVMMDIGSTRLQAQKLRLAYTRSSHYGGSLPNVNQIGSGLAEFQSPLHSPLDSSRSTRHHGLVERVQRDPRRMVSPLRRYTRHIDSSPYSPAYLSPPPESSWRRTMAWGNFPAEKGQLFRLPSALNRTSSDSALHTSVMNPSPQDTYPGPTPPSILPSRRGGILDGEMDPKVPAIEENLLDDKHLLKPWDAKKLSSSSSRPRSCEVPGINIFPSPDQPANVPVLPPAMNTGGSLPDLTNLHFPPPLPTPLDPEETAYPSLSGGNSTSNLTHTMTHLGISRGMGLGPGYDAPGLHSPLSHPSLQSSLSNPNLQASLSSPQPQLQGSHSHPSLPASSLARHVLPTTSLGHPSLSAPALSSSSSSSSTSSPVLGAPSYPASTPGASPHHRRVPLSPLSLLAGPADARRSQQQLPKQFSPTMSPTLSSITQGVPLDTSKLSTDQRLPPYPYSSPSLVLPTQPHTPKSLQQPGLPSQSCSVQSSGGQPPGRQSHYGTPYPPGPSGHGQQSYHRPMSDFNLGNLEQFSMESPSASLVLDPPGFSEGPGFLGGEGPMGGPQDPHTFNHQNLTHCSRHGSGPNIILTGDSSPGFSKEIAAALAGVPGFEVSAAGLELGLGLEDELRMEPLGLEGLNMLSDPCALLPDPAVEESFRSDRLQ
UniProt P19784, whole entry, looked up: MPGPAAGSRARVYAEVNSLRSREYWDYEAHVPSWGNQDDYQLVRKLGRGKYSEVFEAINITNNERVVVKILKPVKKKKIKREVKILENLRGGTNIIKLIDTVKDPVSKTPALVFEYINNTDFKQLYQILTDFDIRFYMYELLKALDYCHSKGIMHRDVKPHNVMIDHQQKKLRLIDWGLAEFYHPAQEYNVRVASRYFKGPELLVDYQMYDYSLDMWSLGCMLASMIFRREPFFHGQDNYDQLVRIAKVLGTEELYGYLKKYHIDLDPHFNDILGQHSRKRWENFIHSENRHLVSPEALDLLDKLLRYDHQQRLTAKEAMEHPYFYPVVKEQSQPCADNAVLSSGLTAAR
UniProt Q9Y5B0: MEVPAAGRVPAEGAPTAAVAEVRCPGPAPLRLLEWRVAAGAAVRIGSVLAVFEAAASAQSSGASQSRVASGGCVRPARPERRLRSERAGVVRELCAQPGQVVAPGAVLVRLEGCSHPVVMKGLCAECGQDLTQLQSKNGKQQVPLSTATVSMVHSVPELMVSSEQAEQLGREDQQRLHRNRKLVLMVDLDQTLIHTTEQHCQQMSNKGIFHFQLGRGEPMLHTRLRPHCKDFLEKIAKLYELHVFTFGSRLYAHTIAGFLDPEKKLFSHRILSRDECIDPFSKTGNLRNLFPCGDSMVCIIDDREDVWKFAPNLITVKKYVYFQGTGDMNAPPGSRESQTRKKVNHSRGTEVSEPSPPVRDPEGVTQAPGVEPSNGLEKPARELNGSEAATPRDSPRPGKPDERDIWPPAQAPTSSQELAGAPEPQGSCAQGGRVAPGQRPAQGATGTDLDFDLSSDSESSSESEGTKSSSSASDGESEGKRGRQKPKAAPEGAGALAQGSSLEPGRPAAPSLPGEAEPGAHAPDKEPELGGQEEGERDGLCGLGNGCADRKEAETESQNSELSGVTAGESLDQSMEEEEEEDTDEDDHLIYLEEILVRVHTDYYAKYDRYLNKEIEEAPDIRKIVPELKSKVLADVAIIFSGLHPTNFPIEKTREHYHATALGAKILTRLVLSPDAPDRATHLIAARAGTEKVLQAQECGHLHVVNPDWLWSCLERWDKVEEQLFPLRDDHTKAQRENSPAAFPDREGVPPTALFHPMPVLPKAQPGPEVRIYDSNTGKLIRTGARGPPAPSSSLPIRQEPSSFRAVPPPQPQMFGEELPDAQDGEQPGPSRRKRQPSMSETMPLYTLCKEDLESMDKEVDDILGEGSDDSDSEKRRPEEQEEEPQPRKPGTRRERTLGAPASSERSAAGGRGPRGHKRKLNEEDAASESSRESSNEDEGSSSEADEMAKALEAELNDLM
UniProt Q2VPK5: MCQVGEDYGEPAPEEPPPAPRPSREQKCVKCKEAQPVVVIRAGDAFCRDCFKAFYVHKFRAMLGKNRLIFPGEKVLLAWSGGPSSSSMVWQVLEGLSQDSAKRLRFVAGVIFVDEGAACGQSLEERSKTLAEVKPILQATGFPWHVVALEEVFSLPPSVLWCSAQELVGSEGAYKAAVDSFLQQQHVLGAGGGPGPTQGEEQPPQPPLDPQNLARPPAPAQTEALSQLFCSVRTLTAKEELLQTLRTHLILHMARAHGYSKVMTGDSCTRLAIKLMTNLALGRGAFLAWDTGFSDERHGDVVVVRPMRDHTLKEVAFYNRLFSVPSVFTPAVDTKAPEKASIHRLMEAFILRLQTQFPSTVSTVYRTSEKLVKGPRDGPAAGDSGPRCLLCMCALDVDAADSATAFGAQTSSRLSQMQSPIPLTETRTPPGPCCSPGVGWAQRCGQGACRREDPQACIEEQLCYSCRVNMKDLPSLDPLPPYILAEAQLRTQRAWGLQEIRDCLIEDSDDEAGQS
UniProt O60888: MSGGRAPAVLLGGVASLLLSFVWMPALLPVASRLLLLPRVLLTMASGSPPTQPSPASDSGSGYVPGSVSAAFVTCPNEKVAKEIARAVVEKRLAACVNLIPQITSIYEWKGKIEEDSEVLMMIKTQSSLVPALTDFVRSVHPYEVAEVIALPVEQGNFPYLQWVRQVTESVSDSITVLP

Legend:
Experiment in all cases: log2 fold change, soluble protein after heating vs DMSO (PISA); higher = thermal stabilisation; K562 lysate, 10 uM; active = over 0.2 and 3.5 SD of the protein, either way, in both replicates (recomputed)
[1] = compound: CCCS(=O)(=O)Nc1ccc(F)c(C(=O)c2c[nH]c3ncc(-c4ccc(Cl)cc4)cc23)c1F [vemurafenib]
Procedure, shortened: (§1)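 Soluble protein was defined as the supernatant remaining after 21,000xg for 90 min, following pooling of heated aliquots and adjustment to 0.5% NP-40 at 4°C. Before that, crude K562 extract at 1 mg/mL protein in PBS pH 7.4 with 1 mM MgCl2 was treated with 10 μM compound for 30 min and heated for 3 min across 48°C-58°C. Quantification used TMTpro 16plex LC-MS/MS with channel sums equalised, and values are log-two fold changes in thermal stability relative to solvent controls from duplicates.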

[2] = compound: CCCS(=O)(=O)Nc1ccc(F)c(C(=O)c2c[nH]c3ncc(Cl)cc23)c1F
Procedure, shortened: as §1

[3] = compound: CCN(CCCOc1ccc2c(Nc3cc(CC(=O)Nc4cccc(F)c4)[nH]n3)ncnc2c1)CCOP(=O)(O)O [barasertib]
Procedure, shortened: as §1

[4] = compound: CC[C@@H]1C(=O)N(C)c2cnc(Nc3ccc(C(=O)NC4CCN(C)CC4)cc3OC)nc2N1C1CCCC1
Procedure, shortened: as §1

[5] = compound: CC[C@@H]1C(=O)N(C)c2cnc(Nc3ccc(C(=O)N[C@H]4CC[C@H](N5CCN(CC6CC6)CC5)CC4)cc3OC)nc2N1C(C)C [volasertib]
Procedure, shortened: as §1

[6] = compound: CCn1c(C(=O)N(C2CC2)C2CC2)cc2c3c(ncn3C)c(Nc3cc(C)n(C)n3)nc21
Procedure, shortened: as §1

[7] = compound: CCn1cc(-c2ccnc3[nH]c(-c4cccc(CN(C)C)c4)cc23)c(-c2ccc(NC(=O)N(C)C)cc2)n1
Procedure, shortened: as §1

[8] = compound: CN1CCC(CNc2ccc3ncc(-c4cccc(OC(F)(F)F)c4)n3n2)CC1
Procedure, shortened: as §1

[9] = compound: CN1CCN(CCOc2cc(OC3CCOCC3)c3c(Nc4c(Cl)ccc5c4OCO5)ncnc3c2)CC1 [saracatinib]
Procedure, shortened: as §1

[10] = compound: CN1CCN(c2nc(C3=C(c4c[nH]c5ccccc45)C(=O)NC3=O)c3ccccc3n2)CC1 [sotrastaurin]
Procedure, shortened: as §1

Measured: log2 fold change

CTH (UniProt P32929)
inactive: [1] 0.048 | [2] 0.018 | [3] -0.015 | [4] 0.028 | [5] 0.036 | [6] -0.026 | [7] -0.089 | [8] 0.062 | [9] -0.031 | [10] 0.003

CYB5R2 (UniProt Q6BCY4)
inactive: [1] 0.078 | [2] -0.014 | [3] 0.055 | [4] 0.029 | [5] 0.016 | [6] 0.01 | [7] -0.068 | [8] 0.079 | [9] -0.017 | [10] 0.02

CUSTOS (UniProt Q96C57)
inactive: [1] -0.051 | [2] 0.018 | [3] -0.056 | [4] 0.042 | [5] 0.016 | [6] -0.004 | [7] -0.01 | [8] 0.052 | [9] 0.01 | [10] 0.022

CYFIP1 (UniProt Q7L576)
inactive: [1] -0.002 | [2] 0.011 | [3] 0 | [4] 0.015 | [5] 0 | [6] 0.035 | [7] -0.102 | [8] 0.015 | [9] 0.002 | [10] -0.013

CSDE1 isoform 4 (UniProt O75534)
inactive: [1] -0.002 | [2] 0.004 | [3] 0.01 | [4] -0.083 | [5] -0.041 | [6] 0.028 | [7] 0.069 | [8] -0.066 | [9] 0.003 | [10] -0.018

CYB5R3 isoform 3 (UniProt P00387)
inactive: [1] 0.043 | [2] -0.022 | [3] -0.033 | [4] 0.023 | [5] 0.008 | [6] -0.079 | [7] -0.015 | [8] 0.043 | [9] -0.009 | [10] 0.032

CTSB (UniProt P07858)
inactive: [1] 0.049 | [2] 0.016 | [3] 0.021 | [4] -0.03 | [5] -0.027 | [6] -0.02 | [7] -0.041 | [8] 0.016 | [9] 0.005 | [10] -0.036

CYB561A3 isoform 2 (UniProt Q8NBI2)
inactive: [1] 0.007 | [2] -0.007 | [3] 0.03 | [4] 0.022 | [5] 0.029 | [6] -0.04 | [7] -0.43 | [8] 0.242 | [9] 0.113 | [10] 0.013

CRLF3 (UniProt Q8IUI8)
inactive: [1] 0.028 | [2] 0.015 | [3] 0.003 | [4] -0.006 | [5] -0.038 | [6] -0.014 | [7] -0.092 | [8] 0.064 | [9] -0.024 | [10] 0

CRTC2 (UniProt Q53ET0)
inactive: [1] 0.077 | [2] 0.064 | [3] 0.09 | [4] 0.065 | [5] 0.064 | [6] -0.018 | [7] -0.012 | [8] -0.042 | [9] 0.067 | [10] 0

CSNK2A2 (UniProt P19784)
inactive: [1] -0.219 | [2] -0.005 | [3] -0.044 | [4] -0.031 | [5] -0.082 | [6] 0.011 | [7] -0.092 | [8] 0.418 | [9] 0 | [10] 0.023

CTDP1 (UniProt Q9Y5B0)
inactive: [1] -0.027 | [2] 0.03 | [3] 0.036 | [4] -0.019 | [5] -0.014 | [6] 0.027 | [7] 0.09 | [8] 0.003 | [9] 0.013 | [10] 0.019

CTU2 (UniProt Q2VPK5)
inactive: [1] -0.056 | [2] -0.017 | [3] -0.003 | [4] -0.03 | [5] 0.007 | [6] 0.058 | [7] -0.048 | [8] 0.027 | [9] 0.007 | [10] 0.044

CTBP2 isoform 2 (UniProt P56545)
inactive: [1] 0.015 | [2] 0.055 | [3] 0.091 | [4] -0.006 | [5] 0.018 | [6] 0.012 | [7] -0.006 | [8] 0.015 | [9] -0.013 | [10] -0.012

Reprinted at random: two records from the list, in no set order.
CSNK2A2 (UniProt P19784)
inactive: [1] -0.219 | [2] -0.005 | [3] -0.044 | [4] -0.031 | [5] -0.082 | [6] 0.011 | [7] -0.092 | [8] 0.418 | [9] 0 | [10] 0.023

CYB561A3 isoform 2 (UniProt Q8NBI2)
inactive: [1] 0.007 | [2] -0.007 | [3] 0.03 | [4] 0.022 | [5] 0.029 | [6] -0.04 | [7] -0.43 | [8] 0.242 | [9] 0.113 | [10] 0.013

The listing continues.

CUTA isoform 2 (UniProt O60888)
inactive: [1] 0.03 | [2] 0.029 | [3] 0.04 | [4] 0.077 | [5] 0.024 | [6] -0.008 | [7] -0.224 | [8] 0.186 | [9] 0.033 | [10] -0.066
